# Reference: the supplement of paper PMC12823440, “Inhibitors supercharge kinase turnover through native proteolytic circuits” (Nature, 2025)
# The chains behind the UniProt entries cited, without tags or fusion partners. Where a name states a change or a piece, a line headed by the entry shows the natural chain unless it says otherwise.
# UniProt P51813: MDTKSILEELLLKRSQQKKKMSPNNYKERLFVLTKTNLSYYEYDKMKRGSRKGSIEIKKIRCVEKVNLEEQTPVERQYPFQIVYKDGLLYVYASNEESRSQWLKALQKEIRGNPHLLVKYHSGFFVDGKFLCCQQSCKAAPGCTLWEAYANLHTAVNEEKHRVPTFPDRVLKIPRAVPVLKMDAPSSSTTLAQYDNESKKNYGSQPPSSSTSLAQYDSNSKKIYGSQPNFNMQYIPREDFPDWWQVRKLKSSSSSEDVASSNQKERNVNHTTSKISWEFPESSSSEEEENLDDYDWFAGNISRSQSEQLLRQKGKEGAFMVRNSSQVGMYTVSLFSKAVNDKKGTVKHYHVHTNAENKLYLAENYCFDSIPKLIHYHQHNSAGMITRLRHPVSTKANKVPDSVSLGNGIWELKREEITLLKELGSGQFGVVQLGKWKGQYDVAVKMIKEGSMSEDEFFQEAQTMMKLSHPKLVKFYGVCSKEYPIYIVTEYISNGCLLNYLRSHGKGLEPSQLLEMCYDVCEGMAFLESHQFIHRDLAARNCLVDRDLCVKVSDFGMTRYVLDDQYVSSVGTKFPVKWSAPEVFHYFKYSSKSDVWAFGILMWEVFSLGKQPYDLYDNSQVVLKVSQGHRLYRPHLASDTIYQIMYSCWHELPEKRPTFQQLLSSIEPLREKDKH
# UniProt P15056, whole entry, looked up: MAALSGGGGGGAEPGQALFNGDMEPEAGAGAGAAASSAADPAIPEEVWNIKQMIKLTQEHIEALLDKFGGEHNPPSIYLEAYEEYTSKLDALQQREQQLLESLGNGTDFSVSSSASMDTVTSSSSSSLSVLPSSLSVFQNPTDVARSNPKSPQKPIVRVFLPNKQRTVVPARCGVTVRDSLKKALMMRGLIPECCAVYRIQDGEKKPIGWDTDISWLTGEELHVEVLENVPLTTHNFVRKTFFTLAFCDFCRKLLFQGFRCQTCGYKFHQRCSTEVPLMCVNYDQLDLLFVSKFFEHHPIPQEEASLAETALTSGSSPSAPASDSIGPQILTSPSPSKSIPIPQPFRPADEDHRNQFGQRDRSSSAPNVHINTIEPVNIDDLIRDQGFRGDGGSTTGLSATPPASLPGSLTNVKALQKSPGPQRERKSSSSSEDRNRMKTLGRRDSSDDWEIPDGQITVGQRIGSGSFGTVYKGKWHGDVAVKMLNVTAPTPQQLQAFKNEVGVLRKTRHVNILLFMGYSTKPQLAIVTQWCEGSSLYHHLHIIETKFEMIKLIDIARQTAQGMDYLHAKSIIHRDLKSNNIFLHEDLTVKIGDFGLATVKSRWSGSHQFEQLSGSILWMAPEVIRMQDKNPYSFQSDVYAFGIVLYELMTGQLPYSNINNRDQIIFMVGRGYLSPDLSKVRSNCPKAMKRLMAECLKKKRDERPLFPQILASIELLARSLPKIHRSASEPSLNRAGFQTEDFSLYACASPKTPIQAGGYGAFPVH
# Counter-ions that a name gives are not always drawn. This is one part of the list. The calls rarely recur for the same compound in another form.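 In K562 cells expressing nanoluciferase-fused kinases, luminescence was recorded at 4 h intervals between 2 and 18 h, normalized as percent of control with DMSO at 100% and a positive control at 0%. A significant (2 sigma) signal drop marks a time point as decreased. The authors' rule for a hit is not shown and takes in more than the number of time points.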
# Molecular target: BMX (UniProt P51813)
# Assay: kinase-Nluc reporter destabilization hit call (1 = scored as downregulated) (binary); higher = compound decreases kinase abundance
# Conditions: K562; 2-18 h
row,SMILES,kinase-Nluc reporter destabilization hit call
1,CCCCNc1nc(N)c2[nH]c(=O)n(Cc3ccc(C)nc3)c2n1 (10 µM),inactive: 0
2,N#CC(C#N)=Cc1ccc([N+](=O)[O-])c(O)c1 (10 µM),inactive: 0
3,O=c1[nH]c2ccccc2n1C1CCN(Cc2ccc(-c3[nH]c4cc5ncnc5cc4nc3-c3ccccc3)cc2)CC1 [AKT inhibitor VIII] (2.5 µM),inactive: 0
4,CC(=O)Oc1ccc(/C=C/c2cc(OC(C)=O)cc(OC(C)=O)c2)cc1 [Triacetylresveratrol] (10 µM),inactive: 0
5,O=C1c2ccccc2C(=O)c2c1cccc2-c1cnn(C2CCNCC2)c1 [PDK4-IN-1 (hydrochloride)] (10 µM),inactive: 0
6,CC1C(=O)OC2C(O)C34C5OC(=O)C3(OC3OC(=O)C(O)C34C(C(C)(C)C)C5O)C12O (stereo unspecified) [Ginkgolide C] (10 µM),inactive: 0
7,O=Cc1cn(Cc2ccc(Cl)cc2)c2ccccc12 [Oncrasin-1] (10 µM),inactive: 0
8,N#CC(C#N)=NNc1cccc(Cl)c1 (2.5 µM),inactive: 0
9,CC(C)=CC[C@@H](OC(=O)CC(C)(C)O)C1=CC(=O)c2c(O)ccc(O)c2C1=O [β-Hydroxyisovalerylshikonin] (2.5 µM),inactive: 0
10,O=c1ccc2cc(O[C@@H]3O[C@H](CO)[C@@H](O)[C@H](O)[C@H]3O)c(O)cc2o1 [Esculin] (10 µM),inactive: 0
11,C[C@H]1CC[C@]2(NC1)O[C@H]1C[C@H]3[C@@H]4CC[C@H]5C[C@@H](O)CC[C@]5(C)[C@H]4CC[C@]3(C)[C@H]1[C@@H]2C [Tomatidine] (2 µM),inactive: 0
12,C/C(O)=C(\C#N)C(=O)Nc1cc(Br)ccc1Br (10 µM),inactive: 0
13,COc1ccc2c(c[n+](C)c3c4cc5c(cc4ccc23)OCO5)c1OC [Chelerythrine (chloride)] (10 µM),inactive: 0
14,COc1ccc2c(c1)[nH]c1c(C)nccc12 [Harmine] (10 µM),inactive: 0
15,CCCCCCCCCCCCCCCCOC[C@H](COP(=O)([O-])OCC[N+](C)(C)C)OC(C)=O (10 µM),inactive: 0
16,O=C(O)c1sc2cc(Cl)ccc2c1Cl (10 µM),inactive: 0
17,C[S+]([O-])/C=C/CCN=C=S (stereo unspecified) [Sulforaphene] (10 µM),inactive: 0
18,Cn1cc(C2=C(c3cn(C4CCN(Cc5ccccn5)CC4)c4ccccc34)C(=O)NC2=O)c2ccccc21 [Enzastaurin] (10 µM),inactive: 0
19,CCN1CCN(C(=O)Cc2ccc(Nc3ncc(F)c(Nc4ccc(C(=O)Nc5ccccc5Cl)cc4)n3)cc2)CC1 (2.5 µM),inactive: 0
20,Cc1n[nH]cc1-c1cc2nc([C@@H]3CC4CCN3CC4)[nH]c(=O)c2s1 [Simurosertib] (2.5 µM),inactive: 0
21,O=C(N[C@@H](COc1ccc2[nH]c(=O)[nH]c2c1)c1ccccc1)c1cccn(Cc2ccc(F)c(F)c2)c1=O (2.5 µM),inactive: 0
22,CCOC(=O)c1c(/C(C#N)=C\N)c2ccc(Cl)c(Cl)c2n1C (10 µM),inactive: 0
23,C[C@H](CCC(=O)O)C[C@H](C)C[C@H](C)C(=O)/C=C(\O)[C@H](C)C[C@H](C)C/C=C/[C@@H](C)[C@@H](O)[C@@H](C)[C@@H](O)C[C@@H]1CC[C@@](C)([C@H]2CC[C@@](C)([C@@H](C)O)O2)O1 [Ionomycin (calcium)] (2.5 µM),inactive: 0
24,CC(C)(C)c1cc(C=C(C#N)C#N)cc(Br)c1O (2.5 µM),inactive: 0
25,C=CC(=O)N[C@H]1C=C(C)c2c(-c3cnc4ccccc4c3)c3c(N)ncnc3n2C1 (10 µM),inactive: 0
26,COC[C@H]1OC(=O)c2coc3c2[C@@]1(C)C1=C(C3=O)[C@@H]2CCC(=O)[C@@]2(C)C[C@H]1OC(C)=O [Wortmannin] (2.5 µM),inactive: 0
27,CC(=O)c1c(O)c(C)c(O)c(Cc2c(O)c3c(c(C(=O)/C=C/c4ccccc4)c2O)OC(C)(C)C=C3)c1O [Rottlerin] (2 µM),inactive: 0
28,NCCc1cn(S(=O)(=O)c2c(Cl)nc3sccn23)c2ccccc12 (10 µM),inactive: 0

# Molecular target: BRAF (UniProt P15056)
# Assay: as above
# Conditions: K562; 2-18 h
row,SMILES,kinase-Nluc reporter destabilization hit call
1,CCCCNc1nc(N)c2[nH]c(=O)n(Cc3ccc(C)nc3)c2n1 (10 µM),inactive: 0
2,N#CC(C#N)=Cc1ccc([N+](=O)[O-])c(O)c1 (10 µM),inactive: 0
3,O=c1[nH]c2ccccc2n1C1CCN(Cc2ccc(-c3[nH]c4cc5ncnc5cc4nc3-c3ccccc3)cc2)CC1 [AKT inhibitor VIII] (2.5 µM),inactive: 0
4,CC(=O)Oc1ccc(/C=C/c2cc(OC(C)=O)cc(OC(C)=O)c2)cc1 [Triacetylresveratrol] (10 µM),inactive: 0
5,O=C1c2ccccc2C(=O)c2c1cccc2-c1cnn(C2CCNCC2)c1 [PDK4-IN-1 (hydrochloride)] (10 µM),inactive: 0
6,CC1C(=O)OC2C(O)C34C5OC(=O)C3(OC3OC(=O)C(O)C34C(C(C)(C)C)C5O)C12O (stereo unspecified) [Ginkgolide C] (10 µM),inactive: 0
7,O=Cc1cn(Cc2ccc(Cl)cc2)c2ccccc12 [Oncrasin-1] (10 µM),inactive: 0
8,N#CC(C#N)=NNc1cccc(Cl)c1 (2.5 µM),inactive: 0
9,CC(C)=CC[C@@H](OC(=O)CC(C)(C)O)C1=CC(=O)c2c(O)ccc(O)c2C1=O [β-Hydroxyisovalerylshikonin] (2.5 µM),inactive: 0
10,O=c1ccc2cc(O[C@@H]3O[C@H](CO)[C@@H](O)[C@H](O)[C@H]3O)c(O)cc2o1 [Esculin] (10 µM),inactive: 0
11,C[C@H]1CC[C@]2(NC1)O[C@H]1C[C@H]3[C@@H]4CC[C@H]5C[C@@H](O)CC[C@]5(C)[C@H]4CC[C@]3(C)[C@H]1[C@@H]2C [Tomatidine] (2 µM),inactive: 0
12,C/C(O)=C(\C#N)C(=O)Nc1cc(Br)ccc1Br (10 µM),inactive: 0
13,COc1ccc2c(c[n+](C)c3c4cc5c(cc4ccc23)OCO5)c1OC [Chelerythrine (chloride)] (10 µM),inactive: 0
14,COc1ccc2c(c1)[nH]c1c(C)nccc12 [Harmine] (10 µM),inactive: 0
15,CCCCCCCCCCCCCCCCOC[C@H](COP(=O)([O-])OCC[N+](C)(C)C)OC(C)=O (10 µM),inactive: 0
16,O=C(O)c1sc2cc(Cl)ccc2c1Cl (10 µM),inactive: 0
17,C[S+]([O-])/C=C/CCN=C=S (stereo unspecified) [Sulforaphene] (10 µM),inactive: 0
18,Cn1cc(C2=C(c3cn(C4CCN(Cc5ccccn5)CC4)c4ccccc34)C(=O)NC2=O)c2ccccc21 [Enzastaurin] (10 µM),inactive: 0
19,CCN1CCN(C(=O)Cc2ccc(Nc3ncc(F)c(Nc4ccc(C(=O)Nc5ccccc5Cl)cc4)n3)cc2)CC1 (2.5 µM),inactive: 0
20,Cc1n[nH]cc1-c1cc2nc([C@@H]3CC4CCN3CC4)[nH]c(=O)c2s1 [Simurosertib] (2.5 µM),inactive: 0
21,O=C(N[C@@H](COc1ccc2[nH]c(=O)[nH]c2c1)c1ccccc1)c1cccn(Cc2ccc(F)c(F)c2)c1=O (2.5 µM),inactive: 0
22,CCOC(=O)c1c(/C(C#N)=C\N)c2ccc(Cl)c(Cl)c2n1C (10 µM),inactive: 0
23,C[C@H](CCC(=O)O)C[C@H](C)C[C@H](C)C(=O)/C=C(\O)[C@H](C)C[C@H](C)C/C=C/[C@@H](C)[C@@H](O)[C@@H](C)[C@@H](O)C[C@@H]1CC[C@@](C)([C@H]2CC[C@@](C)([C@@H](C)O)O2)O1 [Ionomycin (calcium)] (2.5 µM),inactive: 0
24,CC(C)(C)c1cc(C=C(C#N)C#N)cc(Br)c1O (2.5 µM),inactive: 0
25,C=CC(=O)N[C@H]1C=C(C)c2c(-c3cnc4ccccc4c3)c3c(N)ncnc3n2C1 (10 µM),inactive: 0
26,COC[C@H]1OC(=O)c2coc3c2[C@@]1(C)C1=C(C3=O)[C@@H]2CCC(=O)[C@@]2(C)C[C@H]1OC(C)=O [Wortmannin] (2.5 µM),inactive: 0
27,CC(=O)c1c(O)c(C)c(O)c(Cc2c(O)c3c(c(C(=O)/C=C/c4ccccc4)c2O)OC(C)(C)C=C3)c1O [Rottlerin] (2 µM),inactive: 0
28,NCCc1cn(S(=O)(=O)c2c(Cl)nc3sccn23)c2ccccc12 (10 µM),inactive: 0
